In article PMC5955167 one finds binding data, which are given here for one molecule.

For this experiment, the target named is T1, FLCN-FLAG-WT (Folliculin, wild type) (human) (UniProt Q8NFG4).
T1 sequence: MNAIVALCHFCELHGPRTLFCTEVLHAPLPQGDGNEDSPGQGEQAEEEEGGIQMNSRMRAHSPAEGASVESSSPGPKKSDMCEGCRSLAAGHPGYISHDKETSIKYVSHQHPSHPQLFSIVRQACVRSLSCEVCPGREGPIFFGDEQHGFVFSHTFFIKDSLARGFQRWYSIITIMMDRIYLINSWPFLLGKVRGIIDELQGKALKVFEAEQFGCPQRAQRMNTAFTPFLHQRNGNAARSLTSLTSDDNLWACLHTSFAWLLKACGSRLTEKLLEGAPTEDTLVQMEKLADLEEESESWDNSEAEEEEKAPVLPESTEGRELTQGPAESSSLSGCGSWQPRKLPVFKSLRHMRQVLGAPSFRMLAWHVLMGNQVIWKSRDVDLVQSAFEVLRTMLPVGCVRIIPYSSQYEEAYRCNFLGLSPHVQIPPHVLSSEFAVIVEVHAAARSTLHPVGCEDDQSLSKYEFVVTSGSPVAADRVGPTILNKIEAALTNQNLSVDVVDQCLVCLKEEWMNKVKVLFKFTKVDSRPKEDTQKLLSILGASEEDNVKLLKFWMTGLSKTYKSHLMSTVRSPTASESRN
The experiment can be described thus: co-IP; FLCN-FLAG (WT or L460QsX25) transiently expressed in HEK293 and immunoprecipitated on anti-FLAG M2 Affinity Gel agarose, 2 hr at 4 C; washed 4 times with lysis buffer (20 mM HEPES pH 7.0, 100 mM NaCl, 1 mM MgCl2, 0.1% NP40); endogenous partners detected by immunoblotting; empty vector as control.

These are yes or no findings as the source states them, for the method shown. In cells and extracts the contact can be indirect. Some entries that bind do so weakly or less than the wild type. Where a sequence is shown, tags or fusion partners need not be part of it.

B1: Folliculin-interacting protein-1 (FNIP1), endogenous (protein, UniProt Q8TF40 1-1166)
chain: MAPTLFQKLFSKRTGLGAPGRDARDPDCGFSWPLPEFDPSQIRLIVYQDCERRGRNVLFDSSVKRRNEDISVSKLGSDAQVKVFGKCCQLKPGGDSSSSLDSSVTSSSDIKDQCLKYQGSRCSSDANMLGEMMFGSVAMSYKGSTLKIHQIRSPPQLMLSKVFTARTGSSICGSLNTLQDSLEFINQDNNTLKADNNTVINGLLGNIGLSQFCSPRRAFSEQGPLRLIRSASFFAVHSNPMDMPGRELNEDRDSGIARSASLSSLLITPFPSPNSSLTRSCASSYQRRWRRSQTTSLENGVFPRWSIEESFNLSDESCGPNPGIVRKKKIAIGVIFSLSKDEDENNKFNEFFFSHFPLFESHMNKLKSAIEQAMKMSRRSADASQRSLAYNRIVDALNEFRTTICNLYTMPRIGEPVWLTMMSGTPEKNHLCYRFMKEFTFLMENASKNQFLPALITAVLTNHLAWVPTVMPNGQPPIKIFLEKHSSQSVDMLAKTHPYNPLWAQLGDLYGAIGSPVRLARTVVVGKRQDMVQRLLYFLTYFIRCSELQETHLLENGEDEAIVMPGTVITTTLEKGEIEESEYVLVTMHRNKSSLLFKESEEIRTPNCNCKYCSHPLLGQNVENISQQEREDIQNSSKELLGISDECQMISPSDCQEENAVDVKQYRDKLRTCFDAKLETVVCTGSVPVDKCALSESGLESTEETWQSEKLLDSDSHTGKAMRSTGMVVEKKPPDKIVPASFSCEAAQTKVTFLIGDSMSPDSDTELRSQAVVDQITRHHTKPLKEERGAIDQHQETKQTTKDQSGESDTQNMVSEEPCELPCWNHSDPESMSLFDEYFNDDSIETRTIDDVPFKTSTDSKDHCCMLEFSKILCTKNNKQNNEFCKCIETVPQDSCKTCFPQQDQRDTLSILVPHGDKESSDKKIAVGTEWDIPRNESSDSALGDSESEDTGHDMTRQVSSYYGGEQEDWAEEDEIPFPGSKLIEVSAVQPNIANFGRSLLGGYCSSYVPDFVLQGIGSDERFRQCLMSDLSHAVQHPVLDEPIAEAVCIIADMDKWTVQVASSQRRVTDNKLGKEVLVSSLVSNLLHSTLQLYKHNLSPNFCVMHLEDRLQELYFKSKMLSEYLRGQMRVHVKELGVVLGIESSDLPLLAAVASTHSPYVAQILL
Turning to B1, the binding result was “binds”.
